Reference: paper doi:10.1101/2022.07.15.500188
No constants are given. Whether binding was seen depends on the method and setting. In cells and extracts the contact can be indirect. Some results given as binding are weak or reduced against the parent protein; the word gives no strength. Tags and fused reporters may be left off the sequences shown.

Target: T1, HMGN5-GFP (human HMGN5 with C-terminal GFP, HMGN5-FlpIn cell line) (human) (UniProt P82970)
T1 sequence: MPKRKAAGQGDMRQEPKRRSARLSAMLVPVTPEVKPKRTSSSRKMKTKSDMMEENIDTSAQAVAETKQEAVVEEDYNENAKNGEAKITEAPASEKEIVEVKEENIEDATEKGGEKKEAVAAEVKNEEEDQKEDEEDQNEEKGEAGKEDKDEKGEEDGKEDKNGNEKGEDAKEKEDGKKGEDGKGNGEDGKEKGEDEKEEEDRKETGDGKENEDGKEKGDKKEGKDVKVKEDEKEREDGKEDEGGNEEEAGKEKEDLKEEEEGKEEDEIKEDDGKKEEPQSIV
Test: co-IP

binding: binds
B1: CTCF (protein, UniProt P49711 1-727)
chain: MEGDAVEAIVEESETFIKGKERKTYQRRREGGQEEDACHLPQNQTDGGEVVQDVNSSVQMVMMEQLDPTLLQMKTEVMEGTVAPEAEAAVDDTQIITLQVVNMEEQPINIGELQLVQVPVPVTVPVATTSVEELQGAYENEVSKEGLAESEPMICHTLPLPEGFQVVKVGANGEVETLEQGELPPQEDPSWQKDPDYQPPAKKTKKTKKSKLRYTEEGKDVDVSVYDFEEEQQEGLLSEVNAEKVVGNMKPPKPTKIKKKGVKKTFQCELCSYTCPRRSNLDRHMKSHTDERPHKCHLCGRAFRTVTLLRNHLNTHTGTRPHKCPDCDMAFVTSGELVRHRRYKHTHEKPFKCSMCDYASVEVSKLKRHIRSHTGERPFQCSLCSYASRDTYKLKRHMRTHSGEKPYECYICHARFTQSGTMKMHILQKHTENVAKFHCPHCDTVIARKSDLGVHLRKQHSYIEQGKKCRYCDAVFHERYALIQHQKSHKNEKRFKCDQCDYACRQERHMIMHKRTHTGEKPYACSHCDKTFRQKQLLDMHFKRYHDPNFVPAAFVCSKCGKTFTRRNTMARHADNCAGPDGVEGENGGETKKSKRGRKRKMRSKKEDSSDSENAEPDLDDNEDEEEPAVEIEPEPEPQPVTPAPPPAKKRRGRPPGRTNQPKQNQPTAIIQVEDQNTGAIENIIVEVKKEPDAEPAEGEEEEAQPAATDAPNGDLTPEMILSMMDR
